Patent US7282515B2, “Derivatives of azaspiro compounds for the treatment of pain” (Schwarz Pharma AG, priority 2002, dated 2007)

System: NMRI mice
Assay: formalin test (in-vivo test for analgesic effectiveness)
Details: 8 mg/kg, Average of 9 test series
Method: FIG. 1 and Table 1 show the reaction of test animals 20-45 minutes after the intraperitoneal administration of selected compounds. In each case, the maximum dosage selected for the concentration of azaspiro compounds was held, by a factor of about 2, below the toxic dose previously determined in the IRWIN test (Irwin, Psychopharmacologia 13 (1968) 222).
For the purpose of this patent application, the term “mean deviation of the pain reaction” refers to a relative deviation that is obtained when the average time of pain reaction of 10 animals treated with active agents in a test series as described in implementation Example #7 is compared, over a defined period (20-25′, 30-35′ or 40-45′ after formalin injection), with the average time of the pain reaction of 10 control animals treated with an excipient. A reduction in the pain reaction is expressed in negative percentage figures.
1. In-vivo Test for Determining the Analgesic Effectiveness of the Azaspiro Compounds
The test was conducted as described by Wheeler-Aceto (Psychopharmacology 104, 1991, 35).
NMRI mice having a weight of 20-25 g were kept under controlled conditions (22±2° C., 40-70% relative humidity). 25 μl of a 5% formocarbonyl solution was injected in the hind leg and the leg-licking frequency was then clocked for 5 minutes each at defined intervals (20, 30, 40 minutes).
Next, for the formalin test, the test substances were dissolved in a physiological salt solution with 0.5% sodium carboxymethyl cellulose and were each measured in 1-3 dosages that had been applied intraperitoneally 10 minutes before administration of formalin. The comparative reference value was provided by a control excipient (10 ml/kg).
The test was performed in blind fashion on 10 mice per test series. The evaluation was based on a comparison of the treated animals with control excipients at three different times. […] The statistical significance was determined using the Mann-Whitney U-test.

CN1CC[C@]23c4c5ccc(O)c4O[C@H]2[C@@H](O)C=C[C@H]3[C@H]1C5 [Morphine, reference compound]
Mean deviation of the pain reaction compared to control (%) 20–25′ after administration of formalin (20–25′): −87% | Mean deviation of the pain reaction compared to control (%) 30–35′ after administration of formalin (30–35′): −95% | Mean deviation of the pain reaction compared to control (%) 40–45′ after administration of formalin (40–45′): −88%
